For the assay, the target named is T1, GST-tagged MIC27 on the ProtoArray (human) (UniProt Q6UXV4).
T1 sequence: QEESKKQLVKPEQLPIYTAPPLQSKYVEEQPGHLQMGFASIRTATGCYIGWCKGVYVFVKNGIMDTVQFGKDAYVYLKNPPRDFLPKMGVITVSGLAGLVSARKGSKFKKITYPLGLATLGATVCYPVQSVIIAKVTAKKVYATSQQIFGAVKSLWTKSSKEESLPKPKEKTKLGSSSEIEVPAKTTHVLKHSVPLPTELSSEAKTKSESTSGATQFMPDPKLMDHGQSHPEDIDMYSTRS
Put plainly: peptide or protein array; ProtoArray Human Protein Microarrays v5.1 with N-terminally GST-tagged human proteins; purified AIFM1 in probe buffer (PBS, 0.1% Tween-20) for 90 min at 4°C, detected by antibody; both purified.

No constants are given. Whether binding was seen depends on the method and setting. Some results given as binding are weak or reduced against the parent protein; the word gives no strength. Sequences can lack the tags named with a protein.

Consider “AIFM1(103-613) (from UniProt O95831 103-613) (domain or fragment)”, for which the binding entry is recorded as “binds”.
